Measurements reported in PMC10460429.
Results are given in words; binding and its absence hold for the method and conditions named. In cells and extracts the contact can be indirect. Some results given as binding are weak or reduced against the parent protein; the word gives no strength.

The chains behind the UniProt entries cited, without tags or fusion partners. Where a name states a change or a piece, a line headed by the entry shows the natural chain unless it says otherwise.
UniProt O35613: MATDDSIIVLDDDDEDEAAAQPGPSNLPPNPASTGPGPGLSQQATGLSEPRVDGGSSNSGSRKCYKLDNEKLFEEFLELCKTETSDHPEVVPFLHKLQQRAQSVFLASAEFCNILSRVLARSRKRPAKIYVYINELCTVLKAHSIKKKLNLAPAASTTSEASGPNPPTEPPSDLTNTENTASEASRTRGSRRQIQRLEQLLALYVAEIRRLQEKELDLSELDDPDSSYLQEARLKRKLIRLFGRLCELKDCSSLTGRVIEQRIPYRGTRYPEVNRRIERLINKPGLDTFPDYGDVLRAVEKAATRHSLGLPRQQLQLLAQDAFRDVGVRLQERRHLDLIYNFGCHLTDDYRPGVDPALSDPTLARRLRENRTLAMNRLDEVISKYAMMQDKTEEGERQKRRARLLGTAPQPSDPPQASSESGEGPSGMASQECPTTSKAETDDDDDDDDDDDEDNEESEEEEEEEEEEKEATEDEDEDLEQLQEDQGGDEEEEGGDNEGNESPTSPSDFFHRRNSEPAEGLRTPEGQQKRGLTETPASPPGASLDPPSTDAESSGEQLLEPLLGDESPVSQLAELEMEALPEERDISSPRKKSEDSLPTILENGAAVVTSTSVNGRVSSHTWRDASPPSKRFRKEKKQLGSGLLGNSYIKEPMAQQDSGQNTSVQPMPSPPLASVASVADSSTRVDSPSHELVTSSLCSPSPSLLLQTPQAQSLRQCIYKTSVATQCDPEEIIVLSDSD
UniProt P46100: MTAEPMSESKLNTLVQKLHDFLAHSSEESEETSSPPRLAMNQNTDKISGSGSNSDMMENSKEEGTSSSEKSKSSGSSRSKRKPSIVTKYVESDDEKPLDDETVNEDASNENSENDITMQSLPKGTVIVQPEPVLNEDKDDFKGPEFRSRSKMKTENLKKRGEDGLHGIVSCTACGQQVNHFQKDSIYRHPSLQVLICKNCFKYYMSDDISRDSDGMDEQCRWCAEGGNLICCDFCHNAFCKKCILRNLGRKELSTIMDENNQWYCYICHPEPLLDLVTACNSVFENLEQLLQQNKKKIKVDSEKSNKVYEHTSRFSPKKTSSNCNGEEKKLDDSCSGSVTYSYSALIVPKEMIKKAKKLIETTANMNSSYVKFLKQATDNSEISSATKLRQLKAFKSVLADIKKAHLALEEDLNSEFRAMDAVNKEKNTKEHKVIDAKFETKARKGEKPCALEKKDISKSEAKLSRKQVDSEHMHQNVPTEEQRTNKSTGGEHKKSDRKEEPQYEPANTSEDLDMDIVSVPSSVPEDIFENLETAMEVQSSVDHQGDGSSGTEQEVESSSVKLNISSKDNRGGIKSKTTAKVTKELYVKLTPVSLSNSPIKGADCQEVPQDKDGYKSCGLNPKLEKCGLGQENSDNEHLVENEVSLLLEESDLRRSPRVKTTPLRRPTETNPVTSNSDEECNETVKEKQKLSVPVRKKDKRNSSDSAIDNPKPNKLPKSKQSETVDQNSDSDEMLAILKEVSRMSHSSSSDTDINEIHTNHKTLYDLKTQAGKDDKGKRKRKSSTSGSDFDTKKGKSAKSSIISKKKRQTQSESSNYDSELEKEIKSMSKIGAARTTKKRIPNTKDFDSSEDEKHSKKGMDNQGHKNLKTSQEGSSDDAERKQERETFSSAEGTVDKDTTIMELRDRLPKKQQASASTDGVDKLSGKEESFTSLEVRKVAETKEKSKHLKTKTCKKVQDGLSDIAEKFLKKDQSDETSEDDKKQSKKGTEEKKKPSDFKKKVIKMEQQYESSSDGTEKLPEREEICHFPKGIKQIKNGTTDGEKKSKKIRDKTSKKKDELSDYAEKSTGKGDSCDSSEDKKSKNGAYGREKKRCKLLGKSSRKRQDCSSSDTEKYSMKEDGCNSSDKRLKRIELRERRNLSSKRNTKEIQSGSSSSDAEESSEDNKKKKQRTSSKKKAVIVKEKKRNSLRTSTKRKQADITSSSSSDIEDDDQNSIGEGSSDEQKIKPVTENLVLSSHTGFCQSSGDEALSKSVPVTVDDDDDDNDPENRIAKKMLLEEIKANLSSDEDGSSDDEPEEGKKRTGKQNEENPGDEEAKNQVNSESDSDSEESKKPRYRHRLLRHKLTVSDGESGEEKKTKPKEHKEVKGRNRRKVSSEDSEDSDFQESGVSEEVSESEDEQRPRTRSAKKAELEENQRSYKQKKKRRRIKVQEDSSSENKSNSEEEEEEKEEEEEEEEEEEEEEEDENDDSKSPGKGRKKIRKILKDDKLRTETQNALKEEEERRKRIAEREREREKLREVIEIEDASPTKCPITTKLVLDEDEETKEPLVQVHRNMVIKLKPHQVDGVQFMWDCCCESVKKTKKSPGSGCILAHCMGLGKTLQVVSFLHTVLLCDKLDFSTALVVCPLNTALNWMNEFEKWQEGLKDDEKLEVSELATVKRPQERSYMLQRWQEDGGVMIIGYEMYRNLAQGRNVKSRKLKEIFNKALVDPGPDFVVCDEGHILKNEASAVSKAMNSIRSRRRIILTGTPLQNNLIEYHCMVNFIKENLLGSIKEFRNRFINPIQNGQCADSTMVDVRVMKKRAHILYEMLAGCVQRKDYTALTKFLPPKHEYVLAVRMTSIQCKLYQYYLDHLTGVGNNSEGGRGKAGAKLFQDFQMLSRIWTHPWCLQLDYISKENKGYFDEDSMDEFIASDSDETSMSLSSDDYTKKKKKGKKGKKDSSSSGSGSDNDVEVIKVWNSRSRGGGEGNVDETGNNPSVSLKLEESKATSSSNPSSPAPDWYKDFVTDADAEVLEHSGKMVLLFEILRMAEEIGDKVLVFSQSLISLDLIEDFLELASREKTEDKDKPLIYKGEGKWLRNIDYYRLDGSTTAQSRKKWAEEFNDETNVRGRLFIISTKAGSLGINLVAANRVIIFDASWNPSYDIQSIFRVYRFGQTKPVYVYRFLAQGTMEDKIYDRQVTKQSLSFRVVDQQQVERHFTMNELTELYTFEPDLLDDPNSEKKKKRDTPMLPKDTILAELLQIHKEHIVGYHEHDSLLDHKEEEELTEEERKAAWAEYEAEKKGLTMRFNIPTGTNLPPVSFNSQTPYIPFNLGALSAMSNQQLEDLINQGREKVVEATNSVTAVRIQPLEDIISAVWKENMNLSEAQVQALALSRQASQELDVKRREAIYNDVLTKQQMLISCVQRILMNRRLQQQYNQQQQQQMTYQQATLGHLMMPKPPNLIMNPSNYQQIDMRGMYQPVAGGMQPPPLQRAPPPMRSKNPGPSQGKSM

What was measured:
[1] = target: Myc-tagged Daxx (wild-type) (mouse) (UniProt O35613); test: co-IP; Myc-tagged Daxx (wild-type or mutants) overexpressed with either ATRX or H3.3 in 293 T cells; lysis in 50 mM Tris-HCl pH 7.4, 150 mM NaCl, 1% NP-40, 2 mM EDTA; 1 mg lysate precipitated with c-Myc antibody overnight and Protein A agarose for 4 h; blots for Atrx, H3.3, Daxx
[2] = target: Myc-tagged Daxx S226A (mouse) (UniProt O35613); test: as above

- binding [1]: binds
- binding [2]: binds
Substance: ATRX (from UniProt P46100 1-2492)
